{
  "sequences": {"note": "Sequences of proteins named here, by UniProt entry; tags and fusion partners are left off. A change or cut given only in a name is not applied to a line headed by its entry.", "UniProt P08238": "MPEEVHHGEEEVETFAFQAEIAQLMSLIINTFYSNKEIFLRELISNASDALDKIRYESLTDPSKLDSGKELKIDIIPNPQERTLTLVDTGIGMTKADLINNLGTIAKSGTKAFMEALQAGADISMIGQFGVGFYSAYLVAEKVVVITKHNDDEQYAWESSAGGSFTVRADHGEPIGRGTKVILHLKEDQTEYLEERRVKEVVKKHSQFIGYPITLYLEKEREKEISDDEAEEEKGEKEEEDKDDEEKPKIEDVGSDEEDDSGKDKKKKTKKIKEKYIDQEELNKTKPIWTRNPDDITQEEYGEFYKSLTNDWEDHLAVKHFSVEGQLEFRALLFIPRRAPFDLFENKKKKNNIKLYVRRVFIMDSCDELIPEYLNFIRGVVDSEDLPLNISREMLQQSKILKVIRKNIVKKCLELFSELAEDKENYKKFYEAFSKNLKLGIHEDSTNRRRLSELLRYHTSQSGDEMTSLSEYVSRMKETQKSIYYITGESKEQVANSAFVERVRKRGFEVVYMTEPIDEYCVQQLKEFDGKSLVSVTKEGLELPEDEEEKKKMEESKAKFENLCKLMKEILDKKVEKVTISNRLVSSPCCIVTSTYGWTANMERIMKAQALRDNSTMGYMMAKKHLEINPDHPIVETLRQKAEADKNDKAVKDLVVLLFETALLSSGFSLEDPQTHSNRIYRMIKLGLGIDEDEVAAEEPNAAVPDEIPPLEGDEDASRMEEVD", "UniProt P05556": "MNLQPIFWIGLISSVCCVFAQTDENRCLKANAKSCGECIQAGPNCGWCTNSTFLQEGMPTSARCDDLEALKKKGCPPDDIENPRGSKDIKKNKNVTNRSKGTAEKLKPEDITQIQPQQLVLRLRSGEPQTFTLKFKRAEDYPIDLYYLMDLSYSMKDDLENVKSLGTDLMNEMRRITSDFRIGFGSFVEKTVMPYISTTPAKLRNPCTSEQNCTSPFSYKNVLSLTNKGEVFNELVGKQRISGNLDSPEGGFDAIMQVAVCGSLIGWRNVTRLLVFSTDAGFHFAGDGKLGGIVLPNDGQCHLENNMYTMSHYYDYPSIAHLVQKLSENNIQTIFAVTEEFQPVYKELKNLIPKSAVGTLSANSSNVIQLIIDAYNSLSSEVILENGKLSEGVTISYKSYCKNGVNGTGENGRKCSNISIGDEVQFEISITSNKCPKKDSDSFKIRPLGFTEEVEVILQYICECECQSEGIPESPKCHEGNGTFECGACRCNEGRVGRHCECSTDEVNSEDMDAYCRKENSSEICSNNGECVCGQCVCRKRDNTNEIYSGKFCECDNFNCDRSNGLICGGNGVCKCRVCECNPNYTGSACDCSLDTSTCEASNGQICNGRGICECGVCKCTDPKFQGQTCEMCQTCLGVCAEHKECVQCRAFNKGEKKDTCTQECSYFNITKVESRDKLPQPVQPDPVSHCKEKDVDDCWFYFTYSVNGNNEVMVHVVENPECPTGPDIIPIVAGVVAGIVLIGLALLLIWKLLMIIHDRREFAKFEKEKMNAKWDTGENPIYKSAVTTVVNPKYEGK", "UniProt Q96AC1": "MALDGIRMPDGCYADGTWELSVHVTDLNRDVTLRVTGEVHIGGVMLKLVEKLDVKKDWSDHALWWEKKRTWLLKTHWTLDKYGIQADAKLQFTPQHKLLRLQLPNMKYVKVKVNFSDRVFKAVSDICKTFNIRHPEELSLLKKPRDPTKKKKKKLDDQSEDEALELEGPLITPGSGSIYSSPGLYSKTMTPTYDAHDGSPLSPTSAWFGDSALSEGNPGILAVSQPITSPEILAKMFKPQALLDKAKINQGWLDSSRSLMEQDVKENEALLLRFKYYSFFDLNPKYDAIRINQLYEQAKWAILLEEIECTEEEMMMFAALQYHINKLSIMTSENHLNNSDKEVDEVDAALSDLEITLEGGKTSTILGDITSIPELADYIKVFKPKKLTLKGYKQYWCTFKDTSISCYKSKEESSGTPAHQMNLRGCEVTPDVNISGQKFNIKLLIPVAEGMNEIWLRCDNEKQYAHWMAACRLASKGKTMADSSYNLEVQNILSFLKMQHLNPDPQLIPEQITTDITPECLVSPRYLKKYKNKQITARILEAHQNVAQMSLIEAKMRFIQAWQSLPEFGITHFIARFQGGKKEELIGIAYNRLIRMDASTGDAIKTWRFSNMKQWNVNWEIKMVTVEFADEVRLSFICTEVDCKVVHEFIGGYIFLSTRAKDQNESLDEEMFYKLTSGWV", "UniProt P13533": "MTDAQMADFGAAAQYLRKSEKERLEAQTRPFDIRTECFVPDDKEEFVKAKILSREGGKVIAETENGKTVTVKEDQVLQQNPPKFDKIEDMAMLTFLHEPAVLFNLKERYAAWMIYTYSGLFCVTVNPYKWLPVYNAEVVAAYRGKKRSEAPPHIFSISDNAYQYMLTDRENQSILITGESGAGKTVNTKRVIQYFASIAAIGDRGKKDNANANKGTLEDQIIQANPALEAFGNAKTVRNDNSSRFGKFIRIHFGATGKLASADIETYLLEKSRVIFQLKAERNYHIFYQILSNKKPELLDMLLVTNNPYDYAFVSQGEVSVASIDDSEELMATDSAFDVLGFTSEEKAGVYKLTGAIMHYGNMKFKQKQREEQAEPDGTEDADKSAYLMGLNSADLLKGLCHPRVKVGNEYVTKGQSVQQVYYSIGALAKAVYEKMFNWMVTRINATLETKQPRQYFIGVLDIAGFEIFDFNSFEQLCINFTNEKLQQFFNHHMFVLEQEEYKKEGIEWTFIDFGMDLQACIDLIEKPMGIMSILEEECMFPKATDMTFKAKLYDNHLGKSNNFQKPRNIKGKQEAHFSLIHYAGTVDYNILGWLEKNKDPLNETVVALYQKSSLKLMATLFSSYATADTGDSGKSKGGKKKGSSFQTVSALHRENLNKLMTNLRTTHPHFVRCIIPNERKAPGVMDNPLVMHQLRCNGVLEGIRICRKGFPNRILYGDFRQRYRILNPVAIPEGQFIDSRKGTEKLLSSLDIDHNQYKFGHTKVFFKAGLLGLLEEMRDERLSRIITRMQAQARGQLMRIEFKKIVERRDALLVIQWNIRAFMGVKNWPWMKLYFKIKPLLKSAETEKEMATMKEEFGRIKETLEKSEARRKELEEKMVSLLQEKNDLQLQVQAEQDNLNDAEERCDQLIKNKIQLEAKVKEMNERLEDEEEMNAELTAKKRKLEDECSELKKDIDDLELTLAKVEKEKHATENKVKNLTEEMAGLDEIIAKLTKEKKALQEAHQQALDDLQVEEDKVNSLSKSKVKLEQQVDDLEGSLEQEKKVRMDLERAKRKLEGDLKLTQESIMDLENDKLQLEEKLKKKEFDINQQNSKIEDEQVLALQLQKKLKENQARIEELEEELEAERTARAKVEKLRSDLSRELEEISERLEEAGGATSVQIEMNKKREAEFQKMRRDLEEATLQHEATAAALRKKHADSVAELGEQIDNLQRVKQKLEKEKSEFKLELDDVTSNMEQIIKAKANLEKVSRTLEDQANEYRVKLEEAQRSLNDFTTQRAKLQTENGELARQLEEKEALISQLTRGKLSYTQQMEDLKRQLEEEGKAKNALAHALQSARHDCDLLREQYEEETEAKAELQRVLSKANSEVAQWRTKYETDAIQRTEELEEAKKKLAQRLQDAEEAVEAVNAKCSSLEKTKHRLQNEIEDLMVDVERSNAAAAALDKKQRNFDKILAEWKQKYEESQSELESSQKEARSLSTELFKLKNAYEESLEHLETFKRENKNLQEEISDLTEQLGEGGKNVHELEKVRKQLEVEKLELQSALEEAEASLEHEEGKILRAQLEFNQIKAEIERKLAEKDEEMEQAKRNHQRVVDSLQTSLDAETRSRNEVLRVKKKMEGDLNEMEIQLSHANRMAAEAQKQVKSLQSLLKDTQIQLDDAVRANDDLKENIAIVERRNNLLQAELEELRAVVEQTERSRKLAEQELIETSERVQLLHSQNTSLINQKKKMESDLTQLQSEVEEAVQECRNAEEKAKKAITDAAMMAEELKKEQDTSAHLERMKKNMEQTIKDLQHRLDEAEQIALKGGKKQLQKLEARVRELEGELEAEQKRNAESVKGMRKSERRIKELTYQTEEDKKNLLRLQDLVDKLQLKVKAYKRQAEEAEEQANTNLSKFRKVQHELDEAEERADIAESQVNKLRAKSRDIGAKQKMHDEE", "UniProt P49023": "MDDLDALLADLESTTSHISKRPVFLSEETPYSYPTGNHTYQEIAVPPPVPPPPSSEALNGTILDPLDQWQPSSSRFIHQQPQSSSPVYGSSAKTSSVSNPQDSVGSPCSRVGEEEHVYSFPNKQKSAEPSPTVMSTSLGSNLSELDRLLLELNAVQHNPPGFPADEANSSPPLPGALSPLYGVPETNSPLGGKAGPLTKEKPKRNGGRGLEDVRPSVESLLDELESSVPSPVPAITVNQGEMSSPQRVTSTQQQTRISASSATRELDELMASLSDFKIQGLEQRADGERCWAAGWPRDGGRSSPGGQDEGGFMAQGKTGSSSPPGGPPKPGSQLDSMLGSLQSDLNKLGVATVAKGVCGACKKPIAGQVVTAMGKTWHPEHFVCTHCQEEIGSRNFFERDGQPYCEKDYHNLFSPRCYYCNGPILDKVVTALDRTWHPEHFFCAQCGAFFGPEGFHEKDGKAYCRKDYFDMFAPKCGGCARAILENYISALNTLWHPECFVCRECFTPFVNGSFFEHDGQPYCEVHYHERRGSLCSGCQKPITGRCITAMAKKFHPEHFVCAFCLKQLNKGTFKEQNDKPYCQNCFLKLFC"},
  "source": "paper PMC10362501",
  "note": "No constants are given. Whether binding was seen depends on the method and setting. Binding seen in cells or lysates may run through a third protein. Some entries that bind do so weakly or less than the wild type. Sequences can lack the tags named with a protein.",
  "data": [
    {"biological_target": "T1, UNC45B-FLAG (human) (UniProt Q8IWX7)", "T1 sequence": "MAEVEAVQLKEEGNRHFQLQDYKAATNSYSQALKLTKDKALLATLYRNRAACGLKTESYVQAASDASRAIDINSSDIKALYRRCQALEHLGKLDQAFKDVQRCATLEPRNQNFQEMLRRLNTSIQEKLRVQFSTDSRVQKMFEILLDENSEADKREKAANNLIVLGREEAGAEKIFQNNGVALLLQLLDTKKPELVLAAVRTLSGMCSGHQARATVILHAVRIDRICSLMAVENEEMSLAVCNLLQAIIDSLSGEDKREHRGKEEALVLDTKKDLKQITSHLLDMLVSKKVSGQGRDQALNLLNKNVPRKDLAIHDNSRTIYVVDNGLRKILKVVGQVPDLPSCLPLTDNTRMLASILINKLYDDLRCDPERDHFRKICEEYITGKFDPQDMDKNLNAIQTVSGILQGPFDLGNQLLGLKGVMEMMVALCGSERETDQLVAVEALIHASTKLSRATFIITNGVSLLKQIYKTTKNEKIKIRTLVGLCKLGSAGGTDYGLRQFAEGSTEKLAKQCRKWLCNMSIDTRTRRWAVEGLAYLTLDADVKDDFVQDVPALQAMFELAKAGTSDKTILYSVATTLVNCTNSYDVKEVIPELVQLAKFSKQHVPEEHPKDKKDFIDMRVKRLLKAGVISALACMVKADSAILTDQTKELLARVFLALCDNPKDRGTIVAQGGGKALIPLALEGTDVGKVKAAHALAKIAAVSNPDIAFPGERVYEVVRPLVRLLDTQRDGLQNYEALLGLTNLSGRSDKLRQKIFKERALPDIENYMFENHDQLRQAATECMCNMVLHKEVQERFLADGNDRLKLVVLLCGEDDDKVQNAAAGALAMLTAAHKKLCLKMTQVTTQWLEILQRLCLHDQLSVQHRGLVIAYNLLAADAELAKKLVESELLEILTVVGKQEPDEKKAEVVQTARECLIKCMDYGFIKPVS", "test": "co-IP; UNC45B-FLAG pulled down with anti-FLAG beads from lysates of WT^UNC45B-OE-CMs, WT-CMs as negative control; eluates analysed by SDS-PAGE and western blot", "values": [
      {"substance": "HSP90AA1 (from UniProt P07900 1-732)", "binding": "binds"},
      {"substance": "HSP90AB1 (from UniProt P08238 1-724)", "binding": "binds"},
      {"substance": "ITGB1 (from UniProt P05556 21-798) (receptor)", "binding": "no binding"},
      {"substance": "KINDLIN2 (from UniProt Q96AC1 1-680)", "binding": "binds"},
      {"substance": "muscle myosin MYH6 (from UniProt P13533 1-1939)", "binding": "binds"},
      {"substance": "paxillin (from UniProt P49023 1-591)", "binding": "no binding"}
    ]}
  ]
}
